According to patent publication US8883965B2 (Ferring B.V., priority 2006, dated 2014):

Experiments:
[1] = general procedure: Fmoc solid-phase peptide synthesis; Tentagel-S-RAM; DIC/HOBt; DCC, PyBOP or DIC/HOBt; conditions: whole synthesis, analytical HPLC (Agilent 1100, Vydac C18), scale 0.1 mmol, acetate
[2] = Fmoc solid-phase peptide synthesis; Tentagel-S-RAM; DIC/HOBt; DCC, PyBOP or DIC/HOBt; conditions: whole synthesis, scale 0.1 mmol, acetate

**Q.** For [Cha^2, Asn^4, Orn(i-Pr)^6]VT, which “final HPLC purity” value [1] is on record?
**A.** 100%

**Q.** What about the isolated mass [2] of the same substance?
**A.** 20.7 mg

**Q.** What about the isolated yield [2] of the same substance?
**A.** 20%
